Test results published in US20210221768A1, “CRYSTALLINE FORMS OF 1-(ACYLOXY)-ALKYL CARBAMATE DRUG CONJUGATES OF NAPROXEN AND PREGABALIN” (Xgene Pharmaceutical Inc., priority 2018, published 2021).
Read-outs that look alike come from different tables or passages of the source.

What was measured:
[1] = phase I clinical studies in healthy volunteers
[2] = preclinical toxicology and safety pharmacology studies

COc1ccc2cc([C@H](C)C(=O)O[C@@H](C)OC(=O)NC[C@H](CC(=O)O)CC(C)C)ccc2c1 [Formula I, (S)-3-((((R)-1-((S)-2-(6-methoxynaphthalen-2-yl)propanoyloxy)ethoxy)carbonylamino)methyl)-5-methylhexanoic acid]
pharmacological effects beyond those expected from exposure to naproxen and pregabalin [1]: does not cause any pharmacological effects beyond those expected from exposure to naproxen and pregabalin | pharmacological effects beyond those expected from exposure to naproxen and pregabalin [2]: does not cause any pharmacological effects beyond those expected from exposure to naproxen and pregabalin
